Results taken from PubChem BioAssay AID624297 (National Center for Advancing Translational Sciences (NCATS), 2012).
Among all 340,000 compounds or so, about 6,200 (1.8%) were called active. Inconclusive means that the source gave no clear call. Such entries were picked first, then a sample of the others. Calls come from the whole dose curve; as a rule, active = well fitted activation curve with a large enough effect; inconclusive = small, poorly fitted or top-dose-only effect; inactive = no such curve, though single readings can be large or run the other way. A potency beside an inconclusive call is a rough fit, not a confirmed value.

Assay: A quantitative high throughput screen for small molecules that induce DNA re-replication in SW480 colon adenocarcinoma cells. For re-replication activation: % of control where 0% means no effect. Note: nearly all actives have a fitted effect of over 55% in size.
Details: Hoechst DNA content imaging, 48 h; re-replication activation: at 46.1 µM (top of the series) unless noted
Outline: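 Image-based read-out: total Hoechst fluorescence of nuclei (405 nm excitation, 500-530 nm emission), with hits raising the fraction of high-intensity nuclei. SW480 colon cells incubated 48 hr with compounds at 37 C.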
Potency is the fitted concentration of half-maximal effect.

Row | Compound | Potency | re-replication activation
1 | O=S(=O)(NCc1ccc(F)cc1)c1ccc(-c2cnc(C3CC3)o2)cc1 | inconclusive: 32.6 µM [activator, partial curve, poor fit] | 
2 | O=C(O)COc1ccc(/C=C2/SC(=S)N(Cc3ccccc3)C2=O)cc1 |  | inactive: 2.18%
3 | Cc1onc(-c2ccccc2Cl)c1C(=O)Nc1cccc2nsnc12 | inconclusive: 2.59 µM [activator, full curve, poor fit] | 
4 | CCOC(=O)c1cnc(SCC(=O)Nc2sc(C)c(C)c2C#N)nc1N | active: 20.6 µM | 
5 | CC(=O)N(Cc1ccc(F)cc1)c1cccc(C)c1C | inconclusive: 6.51 µM [activator, single point] | 
6 | CN(CC(=O)Nc1ccc(Cl)cc1)C(=O)c1cc(-c2cccs2)nn1-c1ccccc1 | inconclusive: 25.9 µM [activator, single point] | 
7 | CCN1CCc2c(sc(NC(=O)C3CCCCC3)c2C(=O)OC)C1 |  | inactive: -4.53%
8 | CCO[C@H]1OC(C(=O)N2CCN(C)CC2)=C[C@@H](C2CC2)[C@@H]1CCCO |  | inactive: -10.9%
9 | CCOc1ccccc1NC(=O)c1ccc(S(=O)(=O)N(C)c2ccccc2)cc1 | inconclusive: 2.91 µM [activator, single point] | 
10 | CCCc1nc2c(s1)CCc1onc(-c3ccc(OC)cc3)c1-2 |  | inactive: -1.52%
11 | CCOC(=O)C1CCN(C(=O)c2ccccc2N(C)S(C)(=O)=O)CC1 |  | inactive: -8.41%
12 | COc1ccccc1CNC(=O)[C@H](C)NC(=O)C1CCN(C(=O)[C@@H](N)Cc2ccccc2)CC1 | inconclusive: 29.1 µM [activator, single point] | 
13 | COc1cc2c(cc1OC)C1(CCCC1)C(N)=C2C#N | inconclusive: 29.1 µM [activator, partial curve, poor fit] | 
14 | Cc1ccc(S(=O)(=O)Nc2cccnc2)c(C)c1C |  | inactive: -8.77%
15 | Cc1cccc(NC2=C(NCCO)C(=O)c3ccccc3C2=O)c1 |  | inactive: 8.04%
16 | CN1C(=O)N(C)c2ccc(C=O)c3cccc1c23 | inconclusive: 6.51 µM [activator, partial curve, poor fit] | 
17 | Cc1ccc(S(=O)(=O)NCCCNS(=O)(=O)c2ccc(C)cc2)cc1 |  | inactive: -2.26%
18 | CCN(CC)c1ccc(N=Cc2ccccc2[N+](=O)[O-])cc1 | active: 2.59 µM | 
19 | CCN1CCN(CCNC(=O)c2ccc(/C=C3\Sc4ccccc4N(Cc4ccccc4F)C3=O)cc2)CC1 | active: 18.4 µM | 
20 | CCCc1c(NC(=O)Nc2ccc(F)cc2)cnn1-c1ccc(Cl)cc1 | inconclusive: 0.164 µM [activator, full curve, poor fit] | 
21 | Cc1cccc(OCCCSc2nc3ccc(C)cc3[nH]2)c1 |  | inactive: -3.26%
22 | O=C(Nc1nc2ccsc2c(=O)s1)c1ccc(F)cc1 | inconclusive: 29.1 µM [activator, single point] | 
23 | O=C(Nc1nc2ccccc2c(=O)s1)c1ccc(F)cc1Cl | inconclusive: 25.9 µM [activator, single point] | 
24 | O=S(Cc1ccc(Br)cc1)Cc1nnc(SCc2c(F)cccc2Cl)n1-c1ccccc1 (stereo not given) |  | inactive: 9.9%

A few values from above.
`Cc1onc(-c2ccccc2Cl)c1C(=O)Nc1cccc2nsnc12` – Potency: inconclusive: 2.59 µM [activator, full curve, poor fit]
`O=S(Cc1ccc(Br)cc1)Cc1nnc(SCc2c(F)cccc2Cl)n1-c1ccccc1` (stereo not given) – re-replication activation: inactive: 9.9%
`CN(CC(=O)Nc1ccc(Cl)cc1)C(=O)c1cc(-c2cccs2)nn1-c1ccccc1` – Potency: inconclusive: 25.9 µM [activator, single point]

More entries follow:

Row | Compound | Potency | re-replication activation
25 | CNCCC=C1c2ccccc2CCc2ccccc21 | inactive | 
26 | O=c1oc2ccccc2cc1-c1nc2c(s1)CCc1ccccc1-2 | active: 20.6 µM | 
27 | NC(=O)c1sc2nc3c(c(-c4ccc(Cl)cc4)c2c1N)CCCC3 | inconclusive: 18.4 µM [activator, single point] | 
28 | CCOC(=O)c1cc2c(=O)n3ccccc3nc2n(Cc2ccc(Cl)cc2)c1=N | active: 2.06 µM | 
29 | Cc1cccc(/C(N)=N/OC(=O)N2CCOCC2)c1 | inconclusive: 20.6 µM [activator, single point] | 
30 | C=CCn1c(=O)c2ccccc2n2c(SCC(=O)Nc3sc(C(=O)N(CC)CC)c(C)c3C(=O)OCC)nnc12 | inconclusive: 29.1 µM [activator, single point] | 
31 | O=C(Cc1ccccc1)c1c[nH]c(C(=O)O)c1 | inconclusive: 29.1 µM [activator, partial curve, poor fit] | 
32 | COc1ccc(NC(=O)c2cc(S(=O)(=O)N3CCS(=O)(=O)CC3)ccc2Cl)cc1 |  | inactive: -3.25%
33 | Fc1ccccc1-c1ccc(/C=N/Nc2nc3ccccc3[nH]2)o1 | inconclusive: 18.4 µM [activator, single point] | 
34 | COc1ccc(-c2cn3cc(Br)cnc3n2)cc1 | inconclusive: 14.6 µM [activator, partial curve] | 
35 | C=CCn1c(SCc2ccc(Cl)cc2)nc2c1c(=O)[nH]c(=O)n2C |  | inactive: -1.56%
36 | COc1ccc(/C=C2/C(=O)N(c3ccccc3)N=C2C)c(OC)c1 | inconclusive: 11.6 µM [activator, single point] | 
37 | C/C(=N\Nc1nc2ccccc2c(=O)n1O)c1ccco1 |  | inactive: 6.74%
38 | Cc1ccc(Oc2ncccc2CO)cc1 | inconclusive: 6.51 µM [activator, single point] | 
39 | COC(=O)c1cc(NC(=O)Nc2ccccc2)ccc1Cl | inconclusive: 0.082 µM [activator, full curve, poor fit] | 
40 | Cc1ccc(S(=O)(=O)NCCC(=O)Nc2ccncc2)cc1C | active: 0.651 µM | 
41 | C[C@H](NC(=O)c1nc[nH]c1C(=O)N[C@H](C)c1ccccc1)C(=O)OCc1ccccc1 | inconclusive: 1.16 µM [activator, single point] | 
42 | c1ccc(OCCCn2nnc(-c3cccnc3)n2)cc1 | inconclusive: 23.1 µM [activator, single point] | 
43 | Oc1ccccc1C=NNc1nc2ccccc2s1 | inconclusive: 4.11 µM [activator, full curve] | 
44 | CCCCNC(=S)N=Nc1c(O)[nH]c2ccccc12 | inconclusive: 25.9 µM [activator, partial curve, poor fit] | 
45 | COc1ccc(NC(=O)C2CCCN(S(=O)(=O)c3cccc4nonc34)C2)cc1 (stereo not given) | inconclusive: 20.6 µM [activator, single point] | 
46 | CSC(=S)N/N=C/c1ccc(Br)cc1 | inconclusive: 23.1 µM [activator, partial curve, poor fit] | 
47 | CC(c1nccs1)N(C)C(=O)CCc1nnc(CCc2ccccc2)o1 (stereo not given) |  | inactive: -5.55%
48 | O=C(O)c1nn(CC(=O)N2CCN(c3ncc(C(F)(F)F)cc3Cl)CC2)c(=O)c2ccccc12 |  | inactive: -5.64%

Row | Compound | Potency | re-replication activation
49 | CCCCNc1c(-c2cccc(-c3ccc(OC)cc3)c2)nc2cc(C)ccn12 | inconclusive: 25.9 µM [activator, single point] | 
50 | COc1ccc(-c2cc(C(=O)Nc3c(C)nn(Cc4ccc(Cl)cc4)c3C)no2)cc1 | inconclusive: 20.6 µM [activator, single point] | 
51 | Cc1ccccc1NC(=O)c1nc(S(C)(=O)=O)ncc1Cl | inconclusive: 6.51 µM [activator, single point] | 
52 | Cc1ccc(S(=O)(=O)NCC2CCC(C(=O)N3CCN(C)CC3)CC2)cc1 (stereo not given) | inconclusive: 29.1 µM [activator, partial curve, poor fit] | 
53 | O=C(CC1S/C(=N/N=C/C=C/c2ccccc2)NC1=O)Nc1ccc(Cl)c(Cl)c1 (stereo not given) | inconclusive: 29.1 µM [activator, single point] | 
54 | COc1ccc(C)cc1S(=O)(=O)NCc1cccs1 | inconclusive: 0.58 µM [activator, partial curve, poor fit] | 
55 | CCCn1c2c(c(O)c(C(=O)Nc3ncccc3O)c1=O)CCCC2 | inconclusive: 29.1 µM [activator, single point] | 
56 | CCN(CC)c1ccc(/C=N/NC(=O)C(O)(c2ccccc2)c2ccccc2)o1 | inconclusive: 18.4 µM [activator, single point] | 
57 | O=C(NNC(=O)C12CC3CC(CC(Br)(C3)C1)C2)c1ccccc1F |  | inactive: -8.44%
58 | Cc1ccc(NC(CC(=O)c2ccccc2)c2ccc(F)cc2)cc1 (stereo not given) | inconclusive: 29.1 µM [activator, single point] | 
59 | COc1ccc(C(=O)Nc2ccc(-c3ccc(C)o3)cc2)cc1S(=O)(=O)N1CCOCC1 | inconclusive: 25.9 µM [activator, partial curve, poor fit] | 
60 | COc1ccc(CCC(=O)OCC(=O)Nc2ccccc2OC(F)F)cc1OC | inconclusive: 0.231 µM [activator, full curve, poor fit] | 
61 | N#Cc1ccc(C2=CC(=O)C[C@H](c3ccc(Cl)cc3)C2)cc1 | inconclusive: 18.4 µM [activator, single point] | 
62 | CCO/C(C)=N/n1c2nc3ccccc3nc2c2c(=O)n(Cc3ccccc3Cl)c(C)nc21 | inconclusive: 29.1 µM [activator, single point] | 
63 | COCCOC(=O)C1=C(C)NC(=O)NC1c1cccs1 (stereo not given) |  | inactive: 1.02%
64 | Cc1nc([N+](=O)[O-])c(Br)n1Cc1ccc(Cl)c(Cl)c1 | inconclusive: 29.1 µM [activator, single point] | 
65 | COC(=O)c1sccc1NC(=O)Nc1cccc(C(C)=O)c1 | inconclusive: 0.0041 µM [activator, full curve, poor fit] | 
66 | COc1ccccc1CNC(=O)C1Cc2cc(S(=O)(=O)N3CCCC3)ccc2N1C(C)=O (stereo not given) | inconclusive: 32.6 µM [activator, single point] | 
67 | CCN(CC(=O)Nc1ccc(NC(C)=O)cc1)S(=O)(=O)/C=C/c1ccccc1 | inconclusive: 6.51 µM [activator, single point] | 
68 | Cc1ccccc1CS(=O)(=O)c1nnc([C@H](CC(C)C)NC(=O)OC(C)(C)C)o1 | inconclusive: 5.62 µM [activator, full curve] | 
69 | CC(C)OC(=O)CSc1nc(N)c(C#N)c(-c2cccs2)c1C#N | inconclusive: 18.4 µM [activator, single point] | 
70 | COc1ccc(S(=O)(=O)N(CC(=O)NCCC(C)C)c2ccccc2)cc1OC | inconclusive: 29.1 µM [activator, partial curve, poor fit] | 
